Results: publication doi:10.1101/2022.07.24.501280

Molecular target: T1, HA tagged wild type PERK (PKR-like Endoplasmic Reticulum Kinase) (UniProt Q9Z2B5)
T1 sequence: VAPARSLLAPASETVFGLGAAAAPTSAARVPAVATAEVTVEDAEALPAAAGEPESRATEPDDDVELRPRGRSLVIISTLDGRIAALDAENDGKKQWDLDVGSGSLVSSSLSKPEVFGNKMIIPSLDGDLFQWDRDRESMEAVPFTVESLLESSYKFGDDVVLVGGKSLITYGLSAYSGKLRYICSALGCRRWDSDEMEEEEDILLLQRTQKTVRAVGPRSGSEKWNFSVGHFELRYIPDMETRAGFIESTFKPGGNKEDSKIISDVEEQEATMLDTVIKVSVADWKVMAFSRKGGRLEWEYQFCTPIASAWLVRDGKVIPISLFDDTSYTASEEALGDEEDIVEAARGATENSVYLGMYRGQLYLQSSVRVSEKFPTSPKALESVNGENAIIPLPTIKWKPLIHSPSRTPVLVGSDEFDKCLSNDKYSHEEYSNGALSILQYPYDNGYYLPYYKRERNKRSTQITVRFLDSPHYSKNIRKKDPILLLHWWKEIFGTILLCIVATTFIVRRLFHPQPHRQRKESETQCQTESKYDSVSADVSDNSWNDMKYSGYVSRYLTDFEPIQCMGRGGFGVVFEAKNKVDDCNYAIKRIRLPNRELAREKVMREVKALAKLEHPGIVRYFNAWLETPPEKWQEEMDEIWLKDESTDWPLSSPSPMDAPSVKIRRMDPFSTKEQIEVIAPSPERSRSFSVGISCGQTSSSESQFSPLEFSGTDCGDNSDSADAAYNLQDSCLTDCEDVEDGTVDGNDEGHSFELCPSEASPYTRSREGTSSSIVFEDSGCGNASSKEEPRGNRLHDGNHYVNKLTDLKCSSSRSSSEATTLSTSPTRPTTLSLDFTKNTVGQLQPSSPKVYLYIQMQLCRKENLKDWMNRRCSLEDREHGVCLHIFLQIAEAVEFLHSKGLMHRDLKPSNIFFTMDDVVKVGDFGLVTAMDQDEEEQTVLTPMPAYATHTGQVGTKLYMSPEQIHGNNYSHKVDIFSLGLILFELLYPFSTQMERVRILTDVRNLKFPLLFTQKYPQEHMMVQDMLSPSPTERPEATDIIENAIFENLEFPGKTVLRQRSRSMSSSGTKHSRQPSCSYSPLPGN
Assay: affinity purification with mass spectrometry

- binding: binds
Substance: eIF2α (in HEK 293 cells) (from UniProt P05198 1-315)

These are yes or no findings as the source states them, for the method shown. In cells and extracts the contact can be indirect. These calls come from enrichment with a bait or labelling near it, and not all partners need be listed. Sequences can lack the tags named with a protein.
